According to patent publication US20220144905A1:
Results are given in words; binding and its absence hold for the method and conditions named. A result given as binding can be weak or reduced; the word gives no strength.

Molecular target: GST-labeled STAM (Human) Recombinant Protein (Abnova) (human)
Assay: SPR (ProteOn XPR36), GST-labeled protein immobilized on GLH chip, GST as blank

binding	Binder
binds	RRLYYEGLQD [OP10-463]
binds	QIQLAQKLEI [OP10-507]
binds	VQRQLAIQRL [OP10-527]
